# From PMC12714136, “14-3-3θ phosphorylation at S232 reduces its interactome and regulates axonal trafficking” (Disease Models & Mechanisms, 2025)
# By UniProt entry, the sequences of proteins in these tests, tags left out.
# UniProt P11798: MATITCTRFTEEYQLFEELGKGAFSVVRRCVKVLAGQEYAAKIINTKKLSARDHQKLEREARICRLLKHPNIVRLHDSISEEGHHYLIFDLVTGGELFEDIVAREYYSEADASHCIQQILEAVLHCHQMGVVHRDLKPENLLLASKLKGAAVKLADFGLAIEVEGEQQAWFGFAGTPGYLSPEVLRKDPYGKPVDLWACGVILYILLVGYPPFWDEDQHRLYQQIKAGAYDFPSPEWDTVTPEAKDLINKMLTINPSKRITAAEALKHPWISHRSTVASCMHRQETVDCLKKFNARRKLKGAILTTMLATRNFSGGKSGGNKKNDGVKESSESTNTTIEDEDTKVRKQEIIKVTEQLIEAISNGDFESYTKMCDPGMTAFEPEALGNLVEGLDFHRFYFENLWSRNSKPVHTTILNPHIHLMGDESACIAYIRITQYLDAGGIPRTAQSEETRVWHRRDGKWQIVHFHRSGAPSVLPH
# UniProt O88737: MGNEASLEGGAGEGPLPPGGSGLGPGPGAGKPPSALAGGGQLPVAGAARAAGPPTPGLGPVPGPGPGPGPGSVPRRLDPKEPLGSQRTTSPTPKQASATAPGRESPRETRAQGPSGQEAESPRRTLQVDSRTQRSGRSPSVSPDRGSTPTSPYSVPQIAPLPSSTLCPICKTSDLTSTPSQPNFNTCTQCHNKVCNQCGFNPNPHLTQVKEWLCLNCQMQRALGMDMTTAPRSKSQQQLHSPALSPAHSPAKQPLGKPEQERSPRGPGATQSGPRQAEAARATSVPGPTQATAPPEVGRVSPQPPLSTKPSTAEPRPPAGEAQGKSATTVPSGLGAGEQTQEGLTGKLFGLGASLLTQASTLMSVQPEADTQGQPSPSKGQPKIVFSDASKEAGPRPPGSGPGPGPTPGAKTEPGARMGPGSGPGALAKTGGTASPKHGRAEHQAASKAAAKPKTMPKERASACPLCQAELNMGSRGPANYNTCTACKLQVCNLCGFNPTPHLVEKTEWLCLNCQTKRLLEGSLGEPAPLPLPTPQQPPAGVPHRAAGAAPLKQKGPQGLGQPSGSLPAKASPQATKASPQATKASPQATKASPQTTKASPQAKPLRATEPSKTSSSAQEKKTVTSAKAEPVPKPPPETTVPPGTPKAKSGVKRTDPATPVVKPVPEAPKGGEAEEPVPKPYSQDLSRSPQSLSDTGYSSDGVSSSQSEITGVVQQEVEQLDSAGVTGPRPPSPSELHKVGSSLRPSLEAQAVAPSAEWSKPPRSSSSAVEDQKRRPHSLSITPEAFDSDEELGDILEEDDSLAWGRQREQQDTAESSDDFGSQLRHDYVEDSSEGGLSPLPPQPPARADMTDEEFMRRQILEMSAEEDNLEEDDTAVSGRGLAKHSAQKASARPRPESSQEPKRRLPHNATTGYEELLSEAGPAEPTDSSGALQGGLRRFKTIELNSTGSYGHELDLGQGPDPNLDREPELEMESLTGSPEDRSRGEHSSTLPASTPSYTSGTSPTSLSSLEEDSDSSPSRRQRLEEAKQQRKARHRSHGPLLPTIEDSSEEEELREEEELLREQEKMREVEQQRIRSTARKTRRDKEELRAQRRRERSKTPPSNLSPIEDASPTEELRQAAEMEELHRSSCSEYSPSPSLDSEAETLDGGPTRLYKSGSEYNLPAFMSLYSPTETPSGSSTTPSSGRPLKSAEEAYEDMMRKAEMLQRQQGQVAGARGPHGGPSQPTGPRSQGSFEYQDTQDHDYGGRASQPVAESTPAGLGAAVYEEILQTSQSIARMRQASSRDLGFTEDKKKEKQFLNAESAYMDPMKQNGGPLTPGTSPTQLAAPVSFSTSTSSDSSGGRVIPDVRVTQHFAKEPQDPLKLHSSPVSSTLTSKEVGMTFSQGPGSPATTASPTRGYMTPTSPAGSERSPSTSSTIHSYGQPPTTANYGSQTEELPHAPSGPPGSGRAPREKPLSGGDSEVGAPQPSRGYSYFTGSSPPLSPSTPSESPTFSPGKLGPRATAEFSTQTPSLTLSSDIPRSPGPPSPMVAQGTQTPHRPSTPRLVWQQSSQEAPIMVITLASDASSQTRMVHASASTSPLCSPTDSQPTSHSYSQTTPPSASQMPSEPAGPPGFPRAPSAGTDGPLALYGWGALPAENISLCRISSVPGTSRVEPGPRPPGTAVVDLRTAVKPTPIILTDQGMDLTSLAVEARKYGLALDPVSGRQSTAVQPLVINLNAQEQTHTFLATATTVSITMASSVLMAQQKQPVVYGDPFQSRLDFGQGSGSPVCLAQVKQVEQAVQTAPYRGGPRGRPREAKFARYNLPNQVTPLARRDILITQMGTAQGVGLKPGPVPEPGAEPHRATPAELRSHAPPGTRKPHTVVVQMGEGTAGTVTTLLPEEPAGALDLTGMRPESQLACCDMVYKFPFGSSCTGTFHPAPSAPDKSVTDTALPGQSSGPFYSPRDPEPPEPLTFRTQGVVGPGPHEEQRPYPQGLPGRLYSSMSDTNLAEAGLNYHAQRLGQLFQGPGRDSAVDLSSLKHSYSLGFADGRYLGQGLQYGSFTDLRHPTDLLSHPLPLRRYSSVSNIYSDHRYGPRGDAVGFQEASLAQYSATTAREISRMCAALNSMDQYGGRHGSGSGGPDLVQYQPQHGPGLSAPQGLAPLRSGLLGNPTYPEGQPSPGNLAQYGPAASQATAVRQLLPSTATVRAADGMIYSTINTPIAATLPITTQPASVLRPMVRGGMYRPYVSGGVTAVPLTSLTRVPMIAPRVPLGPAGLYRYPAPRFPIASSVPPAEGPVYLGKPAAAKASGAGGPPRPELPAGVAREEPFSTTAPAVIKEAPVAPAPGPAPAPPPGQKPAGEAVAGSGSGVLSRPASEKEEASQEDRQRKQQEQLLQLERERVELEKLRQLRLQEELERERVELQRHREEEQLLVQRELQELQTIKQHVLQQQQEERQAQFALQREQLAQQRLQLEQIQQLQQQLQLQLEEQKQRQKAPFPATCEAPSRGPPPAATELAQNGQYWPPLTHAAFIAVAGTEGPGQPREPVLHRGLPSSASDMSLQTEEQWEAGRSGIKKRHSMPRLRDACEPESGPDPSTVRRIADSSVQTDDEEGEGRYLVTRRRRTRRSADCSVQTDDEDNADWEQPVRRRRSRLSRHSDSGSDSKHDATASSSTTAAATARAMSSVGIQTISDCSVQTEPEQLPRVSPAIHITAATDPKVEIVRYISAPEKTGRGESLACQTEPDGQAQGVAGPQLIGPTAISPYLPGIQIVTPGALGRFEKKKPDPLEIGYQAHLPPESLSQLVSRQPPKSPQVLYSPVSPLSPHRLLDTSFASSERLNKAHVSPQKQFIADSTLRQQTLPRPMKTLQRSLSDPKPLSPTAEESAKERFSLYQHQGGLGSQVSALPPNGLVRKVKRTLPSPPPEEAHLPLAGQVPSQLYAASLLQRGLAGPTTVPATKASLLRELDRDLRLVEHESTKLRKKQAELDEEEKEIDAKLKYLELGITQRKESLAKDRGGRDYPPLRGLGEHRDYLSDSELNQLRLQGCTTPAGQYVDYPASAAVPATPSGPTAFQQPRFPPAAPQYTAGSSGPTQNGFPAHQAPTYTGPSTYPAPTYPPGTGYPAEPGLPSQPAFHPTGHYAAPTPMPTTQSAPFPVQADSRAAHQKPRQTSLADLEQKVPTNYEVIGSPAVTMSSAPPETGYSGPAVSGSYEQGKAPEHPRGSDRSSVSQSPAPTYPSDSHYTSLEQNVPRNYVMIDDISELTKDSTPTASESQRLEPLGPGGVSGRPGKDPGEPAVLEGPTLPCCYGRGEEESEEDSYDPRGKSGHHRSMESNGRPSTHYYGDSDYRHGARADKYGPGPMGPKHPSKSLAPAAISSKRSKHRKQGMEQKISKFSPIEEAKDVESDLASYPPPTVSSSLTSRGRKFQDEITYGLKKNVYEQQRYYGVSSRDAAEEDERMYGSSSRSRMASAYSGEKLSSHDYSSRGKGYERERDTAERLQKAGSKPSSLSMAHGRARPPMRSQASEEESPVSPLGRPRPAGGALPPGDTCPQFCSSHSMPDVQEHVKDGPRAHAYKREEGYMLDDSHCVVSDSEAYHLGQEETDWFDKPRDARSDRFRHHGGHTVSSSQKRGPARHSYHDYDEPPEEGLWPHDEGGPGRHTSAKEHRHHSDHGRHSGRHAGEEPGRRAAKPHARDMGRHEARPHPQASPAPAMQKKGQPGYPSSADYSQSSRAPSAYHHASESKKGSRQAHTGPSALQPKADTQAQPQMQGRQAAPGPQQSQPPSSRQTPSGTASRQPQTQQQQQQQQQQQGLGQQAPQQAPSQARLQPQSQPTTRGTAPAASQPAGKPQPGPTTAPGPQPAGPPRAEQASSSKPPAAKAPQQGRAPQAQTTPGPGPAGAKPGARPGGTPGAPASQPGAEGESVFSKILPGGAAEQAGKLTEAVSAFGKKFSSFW
# Residue numbers refer to the chain shown, from its start. Where two headings read alike, the source gives them in different places. Results are given in words; binding and its absence hold for the method and conditions named. In cells and extracts the contact can be indirect. A yes stands for co-enrichment or nearness to the bait. Other partners may have been found.
# B1: nuclear distribution protein nude-like 1 (mouse cortex) (protein, UniProt Q9ERR1 1-345)
# chain: MDGEDIPDFSSLKEETAYWKELSLKYKQSFQEARDELVEFQEGSRELEAELEAQLVQAEQRNRDLQADNQRLKYEVEALKEKLEHQYAQSYKQVSVLEDDLSQTRAIKEQLHKYVRELEQANDDLERAKRATIVSLEDFEQRLNQAIERNAFLESELDEKESLLVSVQRLKDEARDLRQELAVRERQQEVTRKSAPSSPTLDCEKMDSAVQASLSLPATPVGKGTENSFPSPKAIPNGFGTSPLTPSARISALNIVGDLLRKVGALESKLAACRNFAKDQASRKSYVPGSVNCGVMNSNGPECPRSGRATFFHKGAVNGFDPAPPPPGLGSSRPSSAPGMLPLSV
# B2: breakpoint cluster region (mouse cortex) (protein, UniProt Q6PAJ1 1-1270)
# chain: MVDSVGFAEAWRAQFPDSEPPRMELRSVGDIEQELERCKASIRRLEQEVNQERFRMIYLQTLLAKEKKSYDRQRWGFRRAAQPPDGAAEPRASAPRPPPAPADGADPAPVEESEARPDGEGSPSKGRSASARRPAAAASADRDDRGPPTSVAALRSNFEKIRKGPAQPGSADAEKPFYVNVEFHHERGLVKVNDKEVSDRISSLGSQAMQMERKKSQQSAGQGLGEAPRPHYRGRSSESSCGLDGDYEDAELNPRFLKDNLINANGGNRPPWPPLEYQPYQSIYVGGMMVEGEGKSPLLRSQSTSEQEKRLTWPRRSYSPRSFEDSGGGYTPDCSSNENLTSSEEDFSSGQSSRVSPSPTTYRMFRDKSRSPSQNSQQSFDSSSPPTPQCQKRHRQCQVVVSEATIVGVRKTGQIWPSDGDSTFQGEADSSFGTPPGYGCAADQAEEQRRHQDGLPYIDDSPSSSPHLSSKGRGSLASGALDPTKVSELDLEKGLEMRKWVLSGILASEETYLSHLEALLLPMKPLKAAATTSQPVLTSQQIETIFFKVPELYEIHKEFYDGLFPRVQQWSHQQRVGDLFQKLASQLGVYRAFVDNYGVAMETAEKCCQANAQFAEISENLRARSNKDVKDSTTKNSLETLLYKPVDRVTRSTLVLHDLLKHTPSSHPDHSLLQDALRISQNFLSSINEEITPRRQSMTVKKGEHRQLLKDSFMVELVEGARKLRHIFLFTDLLLCTKLKKQSGGKTQQYDCKWYIPLTDLSFQMVDELEALPNIPLVPDEELDALKIKISQIKSDIQREKRANKGSKVMERLRKKLSEQESLLLLMSPSMAFRVHSRNGKSYTFLISSDYERAEWRESIREQQKKCFKSFSLTSVELQMLTNSCVKLQTVHHIPLTINKEDDESPGLYGFLHVIVHSATGFKQSSNLYCTLEVDSFGYFVNKAKTRVYRDTTEPNWNEEFEIELEGSQTLRILCYEKCYNKMKMTKEDGESADKLMGKGQVQLDPQTLQDRDWQRTVIDMNGIEVKLSVKFTSREFSLKRMPSRKQTGVFGVKIAVVTKRERSKVPYIVRQCVEEIERRGMEEVGIYRVSGVATDIQALKAAFDVNNKDVSVMMSEMDVNAIAGTLKLYFRELPEPLFTDEFYPNFAEGIALSDPVAKESCMLNLLLSLPEANLLTFLFLLDHLKRVAEKETVNKMSLHNLATVFGPTLLRPSEKESKLPANPSQPITMTDSWSLEVMSQVQVLLYFLQLEAIPAPDSKRQSILFSTEV
# B3: huntingtin-associated protein 1 (mouse cortex) (protein, UniProt O35668 1-628)
# chain: MRPKEQVQSGAGDGTGSGDPAAGTPTTQPAVGPAPEPSAEPKPAPAQGTGSGQKSGSRTKTGSFCRSMIIGDSDAPWTRYVFQGPYGPRATGLGTGKAEGIWKTPAAYIGRRPGVSGPERAAFIRELQEALCPNPPPTKKITEDDVKVMLYLLEEKERDLNTAARIGQSLVKQNSVLMEENNKLETMLGSAREEILHLRKQVNLRDDLLQLYSDSDDDDDEEDEEDEEEGEEEEREGQRDQDQQHDHPYGAPKPHPKAETAHRCPQLETLQQKLRLLEEENDHLREEASHLDNLEDEEQMLILECVEQFSEASQQMAELSEVLVLRLEGYERQQKEITQLQAEITKLQQRCQSYGAQTEKLQQMLASEKGIHSESLRAGSYMQDYGSRPRDRQEDGKSHRQRSSMPAGSVTHYGYSVPLDALPSFPETLAEELRTSLRKFITDPAYFMERRDTHCREGRKKEQRAMPPPPAQDLKPPEDFEAPEELVPEEELGAIEEVGTAEDGQAEENEQASEETEAWEEVEPEVDETTRMNVVVSALEASGLGPSHLDMKYVLQQLSNWQDAHSKRQQKQKVVPKDSPTPQQQTNMGGGILEQQPRVPTQDSQRLEEDRATHSPSAREEEGPSGAT
# B4: dynamin 1 (mouse cortex) (protein, UniProt P39053 1-867)
# chain: MGNRGMEDLIPLVNRLQDAFSAIGQNADLDLPQIAVVGGQSAGKSSVLENFVGRDFLPRGSGIVTRRPLVLQLVNSTTEYAEFLHCKGKKFTDFEEVRLEIEAETDRVTGTNKGISPVPINLRVYSPHVLNLTLVDLPGMTKVPVGDQPPDIEFQIRDMLMQFVTKENCLILAVSPANSDLANSDALKIAKEVDPQGQRTIGVITKLDLMDEGTDARDVLENKLLPLRRGYIGVVNRSQKDIDGKKDITAALAAERKFFLSHPSYRHLADRMGTPYLQKVLNQQLTNHIRDTLPGLRNKLQSQLLSIEKEVDEYKNFRPDDPARKTKALLQMVQQFAVDFEKRIEGSGDQIDTYELSGGARINRIFHERFPFELVKMEFDEKELRREISYAIKNIHGIRTGLFTPDMAFETIVKKQVKKIREPCLKCVDMVISELISTVRQCTKKLQQYPRLREEMERIVTTHIREREGRTKEQVMLLIDIELAYMNTNHEDFIGFANAQQRSNQMNKKKTSGNQDEILVIRKGWLTINNIGIMKGGSKEYWFVLTAENLSWYKDDEEKEKKYMLSVDNLKLRDVEKGFMSSKHIFALFNTEQRNVYKDYRQLELACETQEEVDSWKASFLRAGVYPERVGDKEKASETEENGSDSFMHSMDPQLERQVETIRNLVDSYMAIVNKTVRDLMPKTIMHLMINNTKEFIFSELLANLYSCGDQNTLMEESAEQAQRRDEMLRMYHALKEALSIIGDINTTTVSTPMPPPVDDSWLQVQSVPAGRRSPTSSPTPQRRAPAVPPARPGSRGPAPGPPPAGSALGGAPPVPSRPGASPDPFGPPPQVPSRPNRAPPGVPSLGAWRLNSPQGKHENRAGKARL
# Legend:
# Experiment in all cases: affinity purification with mass spectrometry; 14-3-3θ immunoprecipitated with a rabbit polyclonal antibody (rabbit IgG as control) on dynabeads from cortical lysates of 3-month-old Cre control, S232A and S232D mice; 0.5% NP-40 lysis buffer (150 mM NaCl, 10 mM Tris-HCl pH 7.4, 1 mM EGTA, 1 mM EDTA), overnight at 4°C; LC-MS, spectral counts
# [1] = target: T1, 14-3-3θ (wild type, mouse cortex) (mouse (endogenous in cortex)) (UniProt P68254)
# T1 sequence: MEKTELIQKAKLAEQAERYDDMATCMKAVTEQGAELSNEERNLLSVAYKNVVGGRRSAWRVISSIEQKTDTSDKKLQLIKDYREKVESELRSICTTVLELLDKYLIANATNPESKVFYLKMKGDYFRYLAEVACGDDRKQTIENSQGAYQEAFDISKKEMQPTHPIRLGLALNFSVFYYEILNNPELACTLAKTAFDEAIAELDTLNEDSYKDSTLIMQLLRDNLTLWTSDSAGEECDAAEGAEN
# [2] = target: T2, 14-3-3θ S232A (non-phosphorylatable mutant, knock-in mouse cortex) (mouse (endogenous in cortex)) (UniProt P68254)
# T2 sequence: T1 sequence with S232A
# [3] = target: T2, 14-3-3θ S232A (non-phosphorylatable mutant, knock-in mouse cortex) (mouse (endogenous in cortex)); remark: listed apart in the source
# [4] = target: T1, 14-3-3θ (wild type, mouse cortex) (mouse (endogenous in cortex)); remark: listed apart in the source
molecule,measurement,setting,value
β-spectrin (mouse cortex),binding,[1],binds
calcium/calmodulin-dependent protein kinase type II subunit alpha (from UniProt P11798 1-478),binding,[1],binds
bassoon (mouse cortex) (from UniProt O88737 1-3942),binding,[2],binds
B1,binding,[3],binds
B2,binding,[3],binds
B3,binding,[3],binds
B4,binding,[4],binds
